Assay results published in the supplement of paper PMC11546906.
Where a name gives a salt, the structure may show the parent alone. This is one part of the list. This data set is noisy: repeats of one test often differ as much as different tests do.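 Screen of FDA-approved drugs, each combined with colistin at one-eighth of its MIC, against a multidrug-resistant mcr-1-positive clinical E. coli isolate; growth read as OD600 after 24 h. Bacteria without drug were the growth control and plain broth the blank. A combination counted as active when OD600 fell below 0.2.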

Tested on: Escherichia coli 42 (mcr-1-positive clinical isolate)
Assay: OD600 after 24 h growth with compound plus colistin (absorbance units (OD600)); higher = more bacterial growth (less inhibition)
Conditions: first compound 25 µM; colistin concentration 0.5 ug/mL; incubation time 24 h; 37 °C

OD600, inactive:
Cc1nnc(C(=O)NC(C)(C)c2nc(C(=O)NCc3ccc(F)cc3)c(O)c(=O)n2C)o1 [Raltegravir potassium] + CCC(C)CCCC(=O)N[C@@H](CCN)C(=O)N[C@H](C(=O)N[C@@H](CCN)C(=O)N[C@H]1CCNC(=O)[C@H]([C@@H](C)O)NC(=O)[C@H](CCN)NC(=O)[C@H](CCN)NC(=O)[C@H](CC(C)C)NC(=O)[C@@H](CC(C)C)NC(=O)[C@H](CCN)NC1=O)[C@@H](C)O [colistin] 0.993
Nc1nc(Cl)nc2c1ncn2[C@H]1C[C@H](O)[C@@H](CO)O1 [Cladribine] + CCC(C)CCCC(=O)N[C@@H](CCN)C(=O)N[C@H](C(=O)N[C@@H](CCN)C(=O)N[C@H]1CCNC(=O)[C@H]([C@@H](C)O)NC(=O)[C@H](CCN)NC(=O)[C@H](CCN)NC(=O)[C@H](CC(C)C)NC(=O)[C@@H](CC(C)C)NC(=O)[C@H](CCN)NC1=O)[C@@H](C)O [colistin] 0.949
CCn1cc(C(=O)O)c(=O)c2ccc(C)nc21 [Nalidixic acid sodium salt] + CCC(C)CCCC(=O)N[C@@H](CCN)C(=O)N[C@H](C(=O)N[C@@H](CCN)C(=O)N[C@H]1CCNC(=O)[C@H]([C@@H](C)O)NC(=O)[C@H](CCN)NC(=O)[C@H](CCN)NC(=O)[C@H](CC(C)C)NC(=O)[C@@H](CC(C)C)NC(=O)[C@H](CCN)NC1=O)[C@@H](C)O [colistin] 0.927
Cc1onc(-c2ccccc2)c1C(=O)N[C@@H]1C(=O)N2[C@@H]1SC(C)(C)[C@@H]2C(=O)O [Oxacillin sodium salt] + CCC(C)CCCC(=O)N[C@@H](CCN)C(=O)N[C@H](C(=O)N[C@@H](CCN)C(=O)N[C@H]1CCNC(=O)[C@H]([C@@H](C)O)NC(=O)[C@H](CCN)NC(=O)[C@H](CCN)NC(=O)[C@H](CC(C)C)NC(=O)[C@@H](CC(C)C)NC(=O)[C@H](CCN)NC1=O)[C@@H](C)O [colistin] 1
